From US20090054500

Amino acid sequences for entries named in this document (tags omitted). A change or cut given only in a name is not applied to a line headed by its entry.
UniProt Q08369: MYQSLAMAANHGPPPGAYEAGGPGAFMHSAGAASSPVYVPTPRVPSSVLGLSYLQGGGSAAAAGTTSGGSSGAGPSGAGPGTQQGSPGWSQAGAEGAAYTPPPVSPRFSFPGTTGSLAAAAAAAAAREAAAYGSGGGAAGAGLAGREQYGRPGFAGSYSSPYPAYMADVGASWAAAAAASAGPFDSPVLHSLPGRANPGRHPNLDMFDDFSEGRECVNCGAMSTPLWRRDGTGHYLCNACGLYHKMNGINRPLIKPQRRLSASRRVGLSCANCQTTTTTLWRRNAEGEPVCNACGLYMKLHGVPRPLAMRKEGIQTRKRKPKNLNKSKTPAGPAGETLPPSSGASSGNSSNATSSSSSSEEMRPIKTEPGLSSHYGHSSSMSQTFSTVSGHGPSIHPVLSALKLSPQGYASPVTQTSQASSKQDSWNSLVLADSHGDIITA

Columns and labels:
GATA4 [1] = target: GATA4 (UniProt Q08369); test: competition with a labelled probe; details: unlabeled mutant oligo fails to compete for GATA4 binding in EMSA; protein translated in vitro; protein details: in vitro transcription/translation kit (Promega); variant of ANF promoter GATA4 site
GATA4 + CHF1/Hey2 = test: EMSA; details: CHF1/Hey2 added to GATA4 inhibits GATA4 complex formation dose-dependently; effect relatively weak (p54); protein translated in vitro; protein details: in vitro transcription/translation kit (Promega); label: labeled (standard methods)
GATA4 [2] = target: GATA4 (UniProt Q08369); test: EMSA; details: 10 mM Tris pH 7.4, 50 mM NaCl, 1 mM DTT, 1 mM EDTA, 4% glycerol; unlabeled oligo competes; protein translated in vitro; protein details: in vitro transcription/translation kit (Promega); label: labeled (standard methods)

Row | Sequence | binding result (GATA4 [1]) | binding result (GATA4 + CHF1/Hey2) | binding result (GATA4 [2])
1 | CTTTTAAAGTTAAGAGCTCAGCGAAGC / GCTTCGCTGGACTCTTAACTTTAAAAG [ANF promoter GATA4 site mutant] | no binding | – | –
2 | CTTTTAAAGTTATCAGCTCAGCGAAGC / GCTTCGCTGGACTGATAACTTTAAAAG [ANF promoter GATA4 site] | – | binds more weakly | binds

The exact form of at least one protein or probe is not confirmed. For part of these data: A negative result means that nothing was seen under these conditions. For part of these data: The comparison behind a weaker result is the experiment's own reference, which may not be listed here.
